Values quoted from earlier work, collected in patent publication US20210230090A1, “METAL COMPLEXES OF B-DIKETONES AND/OR POLYPHENOLS BY GREEN CHEMISTRY, PREPARATION METHOD THEREOF, SUNSCREEN THEREOF, SKIN OR HAIR TONE CONCEALER THEREOF, HAIR DYEING THEREOF AND OTHER USES THEREOF” (priority 2018, published 2021).

- solubility in water (acidic and neutral pH conditions): almost insoluble
- solubility (alkali medium): soluble
Compound: COc1cc(/C=C/C(=O)CC(=O)/C=C/c2ccc(O)c(OC)c2)ccc1O [curcumin, 1,7-Bis(4-hidroxy-3-methoxyphenyl)hepta-1,6-diene-3,5-dione]
